Data as given in the supplement of paper PMC10849652.
This is one part of the list.

The chains behind the UniProt entries cited, without tags or fusion partners. Where a name states a change or a piece, a line headed by the entry shows the natural chain unless it says otherwise.
UniProt Q9Y4D1, whole entry, looked up: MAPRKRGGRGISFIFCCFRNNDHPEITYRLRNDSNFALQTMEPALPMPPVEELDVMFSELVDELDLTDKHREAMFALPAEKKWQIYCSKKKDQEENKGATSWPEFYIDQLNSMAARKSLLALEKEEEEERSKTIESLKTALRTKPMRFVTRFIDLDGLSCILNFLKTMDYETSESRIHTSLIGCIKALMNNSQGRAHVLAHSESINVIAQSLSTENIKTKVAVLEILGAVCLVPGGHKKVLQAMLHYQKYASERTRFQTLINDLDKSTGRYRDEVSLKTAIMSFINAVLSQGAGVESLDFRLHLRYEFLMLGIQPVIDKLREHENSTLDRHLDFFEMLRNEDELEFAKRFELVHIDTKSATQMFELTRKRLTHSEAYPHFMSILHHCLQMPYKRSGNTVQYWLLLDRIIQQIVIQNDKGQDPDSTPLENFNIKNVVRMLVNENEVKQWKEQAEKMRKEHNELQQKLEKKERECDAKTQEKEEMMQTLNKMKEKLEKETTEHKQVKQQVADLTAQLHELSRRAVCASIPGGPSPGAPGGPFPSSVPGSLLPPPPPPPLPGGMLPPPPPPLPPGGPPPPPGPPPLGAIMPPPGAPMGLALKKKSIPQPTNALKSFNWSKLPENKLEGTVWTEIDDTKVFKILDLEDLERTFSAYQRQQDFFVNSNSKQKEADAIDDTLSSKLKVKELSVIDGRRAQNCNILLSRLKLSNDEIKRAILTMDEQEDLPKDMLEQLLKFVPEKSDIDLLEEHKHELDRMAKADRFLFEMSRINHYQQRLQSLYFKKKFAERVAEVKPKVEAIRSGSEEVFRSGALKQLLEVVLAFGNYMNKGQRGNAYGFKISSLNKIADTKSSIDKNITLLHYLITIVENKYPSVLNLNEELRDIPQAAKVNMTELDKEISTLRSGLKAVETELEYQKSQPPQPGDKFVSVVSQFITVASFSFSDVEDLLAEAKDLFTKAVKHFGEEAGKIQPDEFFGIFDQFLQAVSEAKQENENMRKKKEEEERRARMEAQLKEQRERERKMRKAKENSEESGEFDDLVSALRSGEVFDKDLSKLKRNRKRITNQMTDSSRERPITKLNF
UniProt Q9UJU6: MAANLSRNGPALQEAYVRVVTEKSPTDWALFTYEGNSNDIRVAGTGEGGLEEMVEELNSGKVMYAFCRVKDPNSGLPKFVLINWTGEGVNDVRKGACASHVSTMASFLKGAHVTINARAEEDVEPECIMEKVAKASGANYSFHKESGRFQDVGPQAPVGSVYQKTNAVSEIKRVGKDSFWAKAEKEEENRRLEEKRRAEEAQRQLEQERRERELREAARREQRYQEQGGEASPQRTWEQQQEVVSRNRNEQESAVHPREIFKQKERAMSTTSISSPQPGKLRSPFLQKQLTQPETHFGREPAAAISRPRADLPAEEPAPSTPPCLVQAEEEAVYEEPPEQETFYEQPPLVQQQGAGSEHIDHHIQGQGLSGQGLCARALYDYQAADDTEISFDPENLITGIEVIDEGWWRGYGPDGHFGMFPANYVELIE
UniProt Q6VVX0: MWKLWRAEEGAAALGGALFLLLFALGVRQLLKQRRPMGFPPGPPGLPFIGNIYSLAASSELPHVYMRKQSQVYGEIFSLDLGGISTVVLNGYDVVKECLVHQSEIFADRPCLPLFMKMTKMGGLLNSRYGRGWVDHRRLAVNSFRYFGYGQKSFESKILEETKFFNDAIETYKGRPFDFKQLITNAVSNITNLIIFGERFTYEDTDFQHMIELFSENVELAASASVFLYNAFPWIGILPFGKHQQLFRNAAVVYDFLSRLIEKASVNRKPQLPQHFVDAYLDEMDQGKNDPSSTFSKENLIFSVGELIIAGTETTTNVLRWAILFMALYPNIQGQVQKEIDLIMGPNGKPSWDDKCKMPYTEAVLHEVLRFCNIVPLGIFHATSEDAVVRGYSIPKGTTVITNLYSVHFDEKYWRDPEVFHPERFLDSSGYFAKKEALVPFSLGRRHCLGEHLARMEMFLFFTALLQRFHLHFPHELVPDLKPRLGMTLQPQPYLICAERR
UniProt O60931: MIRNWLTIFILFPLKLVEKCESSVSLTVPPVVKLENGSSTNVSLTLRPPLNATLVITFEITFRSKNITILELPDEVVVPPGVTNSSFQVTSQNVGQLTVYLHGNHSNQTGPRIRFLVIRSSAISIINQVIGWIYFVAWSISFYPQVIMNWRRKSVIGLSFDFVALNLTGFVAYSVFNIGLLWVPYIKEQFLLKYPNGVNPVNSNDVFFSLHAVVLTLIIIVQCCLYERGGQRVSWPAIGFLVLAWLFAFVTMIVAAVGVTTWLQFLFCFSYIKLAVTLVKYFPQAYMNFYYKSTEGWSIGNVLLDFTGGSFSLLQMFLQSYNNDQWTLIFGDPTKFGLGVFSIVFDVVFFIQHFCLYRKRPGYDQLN
UniProt Q16527: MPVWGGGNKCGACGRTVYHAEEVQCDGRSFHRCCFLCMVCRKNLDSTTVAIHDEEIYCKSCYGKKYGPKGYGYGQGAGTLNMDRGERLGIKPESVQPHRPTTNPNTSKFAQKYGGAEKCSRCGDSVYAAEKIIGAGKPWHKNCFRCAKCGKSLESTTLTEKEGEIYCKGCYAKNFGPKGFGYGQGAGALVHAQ
UniProt Q53TN4: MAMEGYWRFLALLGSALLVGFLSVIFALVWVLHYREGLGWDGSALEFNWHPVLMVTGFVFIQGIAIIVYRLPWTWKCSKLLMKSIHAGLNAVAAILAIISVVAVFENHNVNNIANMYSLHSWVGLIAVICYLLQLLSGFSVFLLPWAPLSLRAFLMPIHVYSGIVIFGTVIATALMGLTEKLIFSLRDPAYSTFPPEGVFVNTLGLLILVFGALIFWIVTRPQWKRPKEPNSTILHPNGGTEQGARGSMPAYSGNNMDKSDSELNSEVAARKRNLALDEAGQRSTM
UniProt Q8N8Z6: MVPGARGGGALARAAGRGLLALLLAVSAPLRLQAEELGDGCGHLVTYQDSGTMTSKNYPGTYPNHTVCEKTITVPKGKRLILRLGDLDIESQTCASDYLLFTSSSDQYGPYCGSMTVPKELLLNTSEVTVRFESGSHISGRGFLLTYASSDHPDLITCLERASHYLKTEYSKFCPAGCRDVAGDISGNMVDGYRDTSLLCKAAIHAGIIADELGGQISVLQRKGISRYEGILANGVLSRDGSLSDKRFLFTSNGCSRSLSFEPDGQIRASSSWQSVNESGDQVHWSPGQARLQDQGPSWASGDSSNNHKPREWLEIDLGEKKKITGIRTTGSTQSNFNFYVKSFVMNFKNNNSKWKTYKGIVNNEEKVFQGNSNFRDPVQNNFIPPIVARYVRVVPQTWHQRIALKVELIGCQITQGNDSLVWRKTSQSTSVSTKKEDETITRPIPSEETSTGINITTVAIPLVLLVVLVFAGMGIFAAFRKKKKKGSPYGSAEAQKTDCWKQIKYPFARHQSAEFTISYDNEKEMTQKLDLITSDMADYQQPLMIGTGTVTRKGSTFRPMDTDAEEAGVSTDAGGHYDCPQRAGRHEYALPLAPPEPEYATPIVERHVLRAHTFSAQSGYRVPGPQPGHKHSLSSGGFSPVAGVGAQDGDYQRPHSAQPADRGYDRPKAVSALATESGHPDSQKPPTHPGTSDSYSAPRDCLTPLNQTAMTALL
UniProt O43310: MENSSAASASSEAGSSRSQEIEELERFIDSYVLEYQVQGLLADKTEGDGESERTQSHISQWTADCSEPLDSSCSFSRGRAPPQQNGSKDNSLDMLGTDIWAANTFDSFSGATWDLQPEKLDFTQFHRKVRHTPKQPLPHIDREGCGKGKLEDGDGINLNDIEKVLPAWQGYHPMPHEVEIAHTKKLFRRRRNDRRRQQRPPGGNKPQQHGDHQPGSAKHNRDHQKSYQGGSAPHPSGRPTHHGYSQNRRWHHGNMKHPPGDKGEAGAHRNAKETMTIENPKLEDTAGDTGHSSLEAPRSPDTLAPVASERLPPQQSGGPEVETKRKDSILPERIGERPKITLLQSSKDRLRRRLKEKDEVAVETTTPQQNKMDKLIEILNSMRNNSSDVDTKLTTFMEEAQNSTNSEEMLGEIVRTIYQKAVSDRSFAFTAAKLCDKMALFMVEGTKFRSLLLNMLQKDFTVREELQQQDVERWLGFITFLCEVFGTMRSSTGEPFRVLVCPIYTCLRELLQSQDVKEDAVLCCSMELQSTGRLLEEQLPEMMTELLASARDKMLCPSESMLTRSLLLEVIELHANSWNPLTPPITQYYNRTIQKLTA
UniProt Q96PD2: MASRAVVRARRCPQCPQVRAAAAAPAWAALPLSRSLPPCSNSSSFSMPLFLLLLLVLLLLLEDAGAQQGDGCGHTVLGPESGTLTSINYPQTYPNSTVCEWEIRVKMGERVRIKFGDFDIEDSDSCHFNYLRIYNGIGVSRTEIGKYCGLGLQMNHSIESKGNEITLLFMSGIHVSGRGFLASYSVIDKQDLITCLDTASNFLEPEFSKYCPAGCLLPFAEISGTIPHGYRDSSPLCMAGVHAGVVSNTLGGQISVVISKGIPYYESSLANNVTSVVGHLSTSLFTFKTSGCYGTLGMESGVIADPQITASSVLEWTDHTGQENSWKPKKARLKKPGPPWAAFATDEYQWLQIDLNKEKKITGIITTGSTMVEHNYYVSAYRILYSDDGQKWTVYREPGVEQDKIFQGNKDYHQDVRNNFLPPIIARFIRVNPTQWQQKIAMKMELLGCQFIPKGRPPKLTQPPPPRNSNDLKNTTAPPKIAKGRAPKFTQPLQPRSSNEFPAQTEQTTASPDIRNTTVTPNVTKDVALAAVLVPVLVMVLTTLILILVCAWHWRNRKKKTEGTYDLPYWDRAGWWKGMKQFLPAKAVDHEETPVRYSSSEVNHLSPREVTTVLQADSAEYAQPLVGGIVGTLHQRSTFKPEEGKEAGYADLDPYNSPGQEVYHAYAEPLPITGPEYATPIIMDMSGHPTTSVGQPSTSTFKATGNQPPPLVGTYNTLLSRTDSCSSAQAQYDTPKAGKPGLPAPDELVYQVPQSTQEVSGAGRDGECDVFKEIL
UniProt Q86T65: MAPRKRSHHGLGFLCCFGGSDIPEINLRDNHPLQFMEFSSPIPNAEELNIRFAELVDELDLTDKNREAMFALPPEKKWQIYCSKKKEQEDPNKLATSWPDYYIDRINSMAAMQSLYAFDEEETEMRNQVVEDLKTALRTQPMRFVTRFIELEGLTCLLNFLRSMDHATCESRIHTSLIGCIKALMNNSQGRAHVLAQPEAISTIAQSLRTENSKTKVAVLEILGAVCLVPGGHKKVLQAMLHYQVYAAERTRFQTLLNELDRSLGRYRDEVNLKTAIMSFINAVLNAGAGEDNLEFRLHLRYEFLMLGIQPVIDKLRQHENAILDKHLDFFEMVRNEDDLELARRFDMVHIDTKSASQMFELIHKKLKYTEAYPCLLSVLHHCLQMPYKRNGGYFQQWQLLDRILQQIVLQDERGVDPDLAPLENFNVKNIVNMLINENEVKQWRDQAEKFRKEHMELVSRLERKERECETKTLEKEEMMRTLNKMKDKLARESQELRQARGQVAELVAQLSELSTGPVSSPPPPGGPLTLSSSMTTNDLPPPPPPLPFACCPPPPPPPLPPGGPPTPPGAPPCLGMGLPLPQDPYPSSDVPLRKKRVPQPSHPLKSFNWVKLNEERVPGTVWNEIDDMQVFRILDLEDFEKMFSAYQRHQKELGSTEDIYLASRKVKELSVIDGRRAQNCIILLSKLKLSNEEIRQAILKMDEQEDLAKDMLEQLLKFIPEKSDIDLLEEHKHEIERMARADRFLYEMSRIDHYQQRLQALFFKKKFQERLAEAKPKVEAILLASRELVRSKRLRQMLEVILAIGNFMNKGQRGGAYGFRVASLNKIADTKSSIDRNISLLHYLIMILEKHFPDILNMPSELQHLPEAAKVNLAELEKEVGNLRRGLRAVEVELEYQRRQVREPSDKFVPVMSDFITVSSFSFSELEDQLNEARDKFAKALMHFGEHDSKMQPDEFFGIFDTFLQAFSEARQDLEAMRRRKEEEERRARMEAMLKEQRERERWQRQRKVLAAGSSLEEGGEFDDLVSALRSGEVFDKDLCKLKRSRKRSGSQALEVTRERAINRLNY
UniProt Q15438: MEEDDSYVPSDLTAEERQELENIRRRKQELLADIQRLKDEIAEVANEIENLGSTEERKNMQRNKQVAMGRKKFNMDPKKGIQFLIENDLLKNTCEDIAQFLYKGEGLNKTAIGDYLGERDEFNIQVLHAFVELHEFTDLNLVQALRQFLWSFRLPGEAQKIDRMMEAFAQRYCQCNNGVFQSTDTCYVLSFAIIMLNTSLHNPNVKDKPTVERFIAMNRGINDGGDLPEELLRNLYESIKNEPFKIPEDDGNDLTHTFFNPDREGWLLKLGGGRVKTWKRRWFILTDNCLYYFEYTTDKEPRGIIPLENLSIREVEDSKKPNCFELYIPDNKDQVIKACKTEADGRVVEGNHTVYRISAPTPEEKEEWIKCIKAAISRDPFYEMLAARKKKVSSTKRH
UniProt P00167, whole entry, looked up: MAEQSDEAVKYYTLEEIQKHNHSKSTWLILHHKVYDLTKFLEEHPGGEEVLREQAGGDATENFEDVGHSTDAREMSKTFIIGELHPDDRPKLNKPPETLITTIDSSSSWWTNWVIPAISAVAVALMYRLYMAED

compound: C[C@H](C1=CC=C(C=C1)C(=O)NC2=C3C=CNC3=NC=C2)N; assay: log2 fold change, soluble protein after heating vs DMSO (PISA); higher = thermal stabilisation; K562 cells, 10 uM, 30 min; active = over 0.2 and 3.5 SD of the protein, either way, in both replicates (recomputed)
In short: (§1)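 K562 cells at 2×10^6 cells/mL were treated with 10 μM compound for 30 min. Aliquots were heated for 3 min across 48°C-58°C, pooled, and extracted in PBS with 0.5% NP-40 at 4°C; soluble protein was the supernatant after 21,000xg for 90 min. Soluble protein was quantified by TMTpro 16plex LC-MS/MS with channel sums equalised, and reported as log2 fold change in thermal stability against DMSO controls, with values from duplicates.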

log2 fold change, inactive:
DAAM1 (UniProt Q9Y4D1) -0.06, CTDNEP1 (UniProt O95476) 0.022, DBNL (UniProt Q9UJU6) -0.166, CTNNBIP1 (UniProt Q9NSA3) 0.008, CST4 (UniProt P01036) -0.174, CYP2R1 (UniProt Q6VVX0) 0.006, CYP4V2 (UniProt Q6ZWL3) 0.011, CXorf40B (UniProt Q96DE9) 0.078, CTDSPL2 (UniProt Q05D32) 0.143, CTNS isoform 2 (UniProt O60931) 0.006, CSRP2 (UniProt Q16527) 0.021, CYBRD1 (UniProt Q53TN4) 0.116, DCBLD1 (UniProt Q8N8Z6) -0.066, CTIF (UniProt O43310) 0.176, CYB561 (UniProt P49447) -0.067

compound: C[C@H](Nc1ncnc2nc[nH]c12)c1cc2cccc(Cl)c2c(=O)n1-c1ccccc1 [duvelisib]; assay: as above
In short: as §1

log2 fold change, inactive:
DAAM1 (UniProt Q9Y4D1) 0.043, CTDNEP1 (UniProt O95476) 0.02, CTNNBIP1 (UniProt Q9NSA3) 0.211, DCBLD2 isoform 2 (UniProt Q96PD2) 0.285, CYP4V2 (UniProt Q6ZWL3) -0.002, CXorf40B (UniProt Q96DE9) 0.161, CTDSPL2 (UniProt Q05D32) -0.077, CYBRD1 (UniProt Q53TN4) 0.028, DAAM2 (UniProt Q86T65) 0.048, CUL7 isoform 2 (UniProt Q14999) -0.229, DCBLD1 (UniProt Q8N8Z6) -0.019, CYTH1 (UniProt Q15438) -0.013, CYTH2 (UniProt Q99418) 0.07, CXXC5 (UniProt Q7LFL8) 0.078, CST1 (UniProt P01037) -0.242, CYB5A (UniProt P00167) 0.059, CYREN isoform 4 (UniProt Q9BWK5) 0.202, CYB561 (UniProt P49447) 0.066
